# Data as given in publication PMC4671066, “Characterization of the 26S proteasome network in Plasmodium falciparum” (Scientific Reports, 2015).
# Results are given in words; binding and its absence hold for the method and conditions named. Where a sequence is shown, tags or fusion partners need not be part of it.
# Target: T1, hexahistidyl-tagged P. falciparum thioredoxin 1 (PfTrx1) (P. falciparum) (UniProt Q7KQL8)
# T1 sequence: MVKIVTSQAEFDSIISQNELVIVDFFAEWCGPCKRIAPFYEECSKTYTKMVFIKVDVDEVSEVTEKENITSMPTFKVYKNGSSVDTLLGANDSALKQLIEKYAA
# Assay: pull-down; both purified
row,Substance,binding
1,GST-fused UBL domain of PfDsk2 (P. falciparum) (domain or fragment),"no binding (tested: 18 μM bait, 1.8 μM GST-tagged UBL domain)"
2,GST-fused UBL domain of PfRad23 (P. falciparum) (domain or fragment),"no binding (tested: 18 μM bait, 1.8 μM GST-tagged UBL domain)"
